For the assay, the target named is TRAPPC4 (human) (UniProt Q9Y296). In words: HDX-MS; 1 uM Rab1, Rab11 or Rab43 and 350 nM TRAPPII; 20 mM EDTA for 30 min on ice to release nucleotide; 3, 30, 300, 3000 s at room temperature; 85% D2O, 10 mM HEPES pH 7.5, 50 mM NaCl; both purified.

Results are given in words; binding and its absence hold for the method and conditions named. Some entries that bind do so weakly or less than the wild type.

Take Rab11 (from UniProt P62491 1-216): the binding result is “binds”.
